{"source": "PubChem BioAssay AID1347423", "about": "(Functional Genomics Laboratory (NCATS/FGL), 2020)", "note": "Screen size: about 52,000 sequences; about 210 (0.4%) were called active.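 Rule for the calls: active = gene whose silencing raises cell survival under the drug, median off-target-corrected z-score across its silencing RNAs 2 or more; inactive = the rest.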 The list shows a part of the results.", "data": [{"assay": "Resistance to Poly (ADP-Ribose) Polymerase inhibitor: Gene Identification via Genome-wide siRNA Screen", "settings": "mouse BRCA2 R2336H ES cells, olaparib, CellTiter-Glo viability; active compounds read high", "procedure,_shortened": "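Genome-wide siRNA screen (3 siRNAs/gene, 20 nM) in mouse ES cells carrying hypomorphic BRCA2 R2336H; olaparib 500 nM added 48 h post-transfection, CellTiter-Glo viability 72 h later. Normalized to plate-median negative control; MAD z-scores, gene median, seed-adjusted.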", "values": [{"sequence": "GGAAAUCAUCUUUUCAGAUTT against Slc7a12", "z-score": "inactive: -0.313"}, {"sequence": "GGAGACCAUAAACAUAUUUTT against 4930449E07Rik", "z-score": "inactive: 0.359"}, {"sequence": "GGAUUUAUGGCAAGUUUCUTT against Ppp2r5e", "z-score": "inactive: 0.323"}, {"sequence": "GGAAAUCAAAGAACUGUAUTT against 5730596K20Rik", "z-score": "inactive: 0.926"}, {"sequence": "GCCUUCUGUUAAGGUAAGATT against ORF34", "z-score": "inactive: -1.2"}, {"sequence": "GGCCUUCAAGAACUCCUCCTT against Zec", "z-score": "inactive: 0.43"}, {"sequence": "GCGACUCCUAGACAGAAAGTT against 2010204I15Rik", "z-score": "inactive: 0.445"}, {"sequence": "GCUGAAGACACUCUGUGAATT against LOC114601", "z-score": "inactive: -0.507"}, {"sequence": "GGCAAUGCACUGCUAUUAUTT against Olfr617", "z-score": "inactive: -2.85"}, {"sequence": "GGUAGACCAGCUUAAGAAGTT against Gngt1", "z-score": "inactive: 1.01"}, {"sequence": "GCUUAUGAGGUGUUGAGCGTT against Dnaja3", "z-score": "inactive: 0.532"}, {"sequence": "GAGAAGUGUCUUGGGAAACTT against Gchfr", "z-score": "inactive: 0.621"}, {"sequence": "GGAGCUAAACUCCUUGAAGTT against Slc22a4", "z-score": "inactive: 0.195"}, {"sequence": "GGACAUCUCCUGUCUGAAUTT against Timm50", "z-score": "inactive: -1.54"}, {"sequence": "GCUGGAUAGCACAUGUCUATT against Klk16", "z-score": "inactive: 0.836"}, {"sequence": "GCAAGGAUGAAUCUAUAGATT against Pdgfrb", "z-score": "inactive: 0.277"}, {"sequence": "GGCAUCACGUCAGAGUACATT against AY487415", "z-score": "inactive: 0.915"}, {"sequence": "GGGACCAAAACCUGCAUUGTT against App", "z-score": "inactive: -2.85"}, {"sequence": "GGAGAACGUGUUCUUUCCUTT against Procr", "z-score": "inactive: -0.625"}, {"sequence": "GCGGGCCAUGACAAUUACUTT against Dnb5", "z-score": "inactive: -1.42"}, {"sequence": "GCUAUUGGAGAUAUAAUGGTT against Ace", "z-score": "inactive: 1.72"}, {"sequence": "GGACCAGAUUGCUAAUGAGTT against D430015B01Rik", "z-score": "inactive: 0.733"}, {"sequence": "GGCUAUGAGAUUUAGAGCATT against 1700060E18Rik", "z-score": "inactive: -0.384"}, {"sequence": "GGAGAAGUACAAUAAUGACTT against Cacnb1", "z-score": "inactive: -0.0976"}, {"sequence": "CCAAAGCACAGCAAUUAAUTT against Eif3s10", "z-score": "inactive: -2.67"}, {"sequence": "GGUUGUACUCUACACCAAGTT against Crtac1", "z-score": "inactive: 0.578"}, {"sequence": "GGACAGCACAAUUACCUUUTT against Nr3c1", "z-score": "inactive: -1.19"}, {"sequence": "GGGACUUGUUGCUUAGCAATT against AW555814", "z-score": "inactive: -3.23"}, {"sequence": "GCUCUGUCAGUGAAUGUGATT against Pkd1l2", "z-score": "inactive: -0.374"}, {"sequence": "GGCACCCUUGAACUCUACUTT against 4930404N11Rik", "z-score": "inactive: -1.77"}, {"sequence": "CCUCUGAGAAGGAGAUACATT against Hadh2", "z-score": "inactive: 0.935"}, {"sequence": "GGAUCACCAUUGCUUGACUTT against Galt", "z-score": "inactive: 1.45"}, {"sequence": "GCAGUCAAAACCUAAAAGUTT against B230315F11Rik", "z-score": "inactive: 1.66"}, {"sequence": "CGAACUUCUUUAUCAGAACTT against Mrgpra4", "z-score": "inactive: -0.0736"}, {"sequence": "GGCAGAAAACAAGAUAAAGTT against Wbscr1", "z-score": "inactive: -0.0664"}, {"sequence": "GCCACUUGGAAGAUCUAUGTT against Kcnq1", "z-score": "inactive: -0.111"}, {"sequence": "GCAUAUGUCUGUGGAAUGUTT against Olfr1505", "z-score": "inactive: 0.516"}, {"sequence": "CCAGCAACCUGAAAUACCUTT against F830104D24Rik", "z-score": "inactive: -1.31"}, {"sequence": "GGACUCAGCAAAGAAAGAGTT against Eea1", "z-score": "inactive: -1.52"}, {"sequence": "CCGUGUUAGAGUUUUCGACTT against Top3b", "z-score": "inactive: -0.103"}, {"sequence": "CGACUUUCUUGUGGAGUGGTT against Nanos1", "z-score": "inactive: 0.693"}, {"sequence": "GCUGUACAAAACAUAAGAATT against Bcl6", "z-score": "inactive: 0.461"}, {"sequence": "GGCUUUUAGAUUCAACGGCTT against B230369L08Rik", "z-score": "inactive: 0.722"}, {"sequence": "GGUCCAGGUCUGAAUCUAGTT against Sfrs10", "z-score": "inactive: -2.42"}, {"sequence": "GGUGUGGAUGAGCAAGUACTT against 1200009C21Rik", "z-score": "inactive: -2.68"}, {"sequence": "CCUUAAUUGGGUUGAAUUCTT against Olfr878", "z-score": "inactive: 1.36"}, {"sequence": "GGAACAGGAAGAAAGAAAATT against Ube2e3", "z-score": "inactive: -0.0957"}, {"sequence": "GGCUAGUCACCUUUGUAGCTT against Mmrn2", "z-score": "inactive: -0.147"}, {"sequence": "GCUCUCACACAUGUUUGUUTT against LOC219026", "z-score": "inactive: 0.935"}, {"sequence": "GGUUGUGUUUUCAAGAAUUTT against 4921507P07Rik", "z-score": "inactive: -0.00599"}, {"sequence": "GGGUGGACUCAGUGCUUCUTT against Hoxd3", "z-score": "inactive: 2.02"}, {"sequence": "GGUUCUAUACAAUCCUGAATT against 2610206B13Rik", "z-score": "inactive: 0.223"}, {"sequence": "GGACUUAGUACCUGAUAACTT against 2700060E02Rik", "z-score": "inactive: -0.963"}, {"sequence": "GGCAAAAGCAUUGUCUCUGTT against 4930438O05Rik", "z-score": "inactive: -0.7"}, {"sequence": "CGAGCGGAUGCUGGUAUUUTT against 3000004C01Rik", "z-score": "inactive: -1.19"}, {"sequence": "CGUGCUGUUGUGUAAUUUCTT against Wdr37", "z-score": "inactive: 0.16"}, {"sequence": "GGAAUGUCGAAGAAAAUGCTT against Adam15", "z-score": "inactive: -0.742"}, {"sequence": "CCGAAAGAGGUGAUUGUUATT against Crk7", "z-score": "inactive: -0.874"}, {"sequence": "CGUGAUUCUAGUAAGAGAGTT against Mbd1", "z-score": "inactive: -1.37"}, {"sequence": "GGAGCUGAUCCUUAACUUATT against Adam1b", "z-score": "inactive: -0.162"}, {"sequence": "CCGAUGAUGAGAUUAAUAUTT against Ophn1", "z-score": "inactive: -0.413"}, {"sequence": "GCGAUUGAGCAGUGAAUAATT against AU021034", "z-score": "inactive: -2.03"}, {"sequence": "GGCAGCAAAAAGGUGACGCTT against Cdk5r2", "z-score": "inactive: -1.11"}, {"sequence": "GGUGACAUUACAUUUCAUATT against 2610528A17Rik", "z-score": "inactive: -0.909"}, {"sequence": "GCCGUUAAACAGUUCUCCCTT against BC065078", "z-score": "inactive: 0.803"}, {"sequence": "GGUUGUCACCCUGACGGAATT against Cox4i2", "z-score": "inactive: 1.27"}, {"sequence": "GCUUUAUCAUGAGCUCCACTT against 9330199A09Rik", "z-score": "inactive: -0.0905"}, {"sequence": "ACAUGGGAGUAUUUGAUCCTT against D530030D03Rik", "z-score": "inactive: -0.172"}, {"sequence": "GGCCAUUAACAUCACCAACTT against Csnk2a2", "z-score": "inactive: 0.567"}, {"sequence": "GGGUCAUGUUAACUCUAAATT against Og2x", "z-score": "inactive: 0.17"}, {"sequence": "CCAUAUAAGGCACAGUUUGTT against 1200007D18Rik", "z-score": "inactive: -0.0905"}, {"sequence": "GGACUCAAGACACCAGUUGTT against D5Bwg0860e", "z-score": "inactive: -2.67"}, {"sequence": "GGGCAGUUUUACAAAUGUUTT against Fbxw8", "z-score": "inactive: -1.31"}, {"sequence": "GGUUUCAAGUGAUGAAUAGTT against Ntf5", "z-score": "inactive: 0.176"}, {"sequence": "GCCACAUAAGGUUGUUCCCTT against Gamt", "z-score": "inactive: -0.12"}, {"sequence": "GGUGUUUUCCAACAUCCUCTT against Ccrl2", "z-score": "inactive: 0.253"}, {"sequence": "CCCAGUGAAGCAUUUUUUATT against Rpp30", "z-score": "inactive: 1.27"}, {"sequence": "GGAGUUGUAGAGAAUUUAGTT against Zfp85-rs1", "z-score": "inactive: 1.31"}, {"sequence": "GCUUUAAUUCACCAUUAGGTT against Pax9", "z-score": "inactive: -0.451"}, {"sequence": "GUGCAGCUAUGAGCUGUUCTT against Sepx1", "z-score": "inactive: 0.966"}, {"sequence": "GGCAUUACAUUUCAAUGAATT against Serpinb12", "z-score": "inactive: 0.557"}, {"sequence": "GGGAAUCGGUGGAUUUGGATT against 1110057H19Rik", "z-score": "inactive: -0.199"}, {"sequence": "GGACACUAUGACGGAAGUATT against Apoe", "z-score": "inactive: 2.46"}, {"sequence": "GGGAAAAUGCCUAUCGAUUTT against Meis1", "z-score": "inactive: 0.777"}, {"sequence": "CCUUCCCUUAAAUGGAACCTT against Slc9a1", "z-score": "inactive: 1.6"}, {"sequence": "GGAUGGGCCAUAUUGUCCUTT against 1110008J03Rik", "z-score": "inactive: 0.755"}, {"sequence": "AUAAAGAUGUCAGUGAUGCTT against Olfr951", "z-score": "inactive: -0.891"}, {"sequence": "GGUCACUGUUUCCCUAGACTT against Prss33", "z-score": "active: -0.494"}, {"sequence": "GCACUGUGAGUGGAUACUUTT against Slc5a3", "z-score": "inactive: -2.02"}, {"sequence": "GGGCAACUUUGAUUAAUCATT against Hsd3b7", "z-score": "inactive: -1.23"}, {"sequence": "GGCAAGAUCACCUUCUGCATT against Psmd4", "z-score": "inactive: -3.03"}, {"sequence": "GAUGCACUUCGAAUCAGGGTT against Uchl3", "z-score": "inactive: 3.06"}, {"sequence": "GCUAGAGAAAUGGAAUUUATT against 4632411B12Rik", "z-score": "inactive: 0.259"}, {"sequence": "GCUUUUACGGGAGAAAACUTT against Xbp1", "z-score": "inactive: -2.65"}, {"sequence": "CCAGAUUUGAGCGAAACCUTT against Myo15", "z-score": "inactive: 0.984"}, {"sequence": "GGUCUUGAUUAUAAGCCCATT against 9430063L05Rik", "z-score": "inactive: 0.984"}, {"sequence": "GCACAGCUUUUUGGAUCUGTT against A630028O16Rik", "z-score": "inactive: -0.987"}, {"sequence": "GGAAGGCUCAGAGAAAUAATT against Ssr4", "z-score": "inactive: -0.122"}, {"sequence": "GGAGAAGCUGCUGGCAGAATT against 2610009I02Rik", "z-score": "inactive: 1.46"}, {"sequence": "GGCUCAUUGUAGCAAAUUATT against 2610034K17Rik", "z-score": "inactive: -1.27"}, {"sequence": "GCUGUAAUGACCAGUGUUUTT against Gpam", "z-score": "inactive: 0.124"}, {"sequence": "GGCCAAACUGGAUUACUUATT against Tmprss11c", "z-score": "inactive: -0.141"}, {"sequence": "GGCCUGAAUGACACCUUUATT against Anp32e", "z-score": "inactive: -0.803"}]}]}
